Values quoted from earlier work in article PMC11489206, “Transport of perfluoroalkyl substances across human induced pluripotent stem cell-derived intestinal epithelial cells in comparison with primary human intestinal epithelial cells and Caco-2 cells” (Archives of Toxicology, 2024).

Design: method as in Ayehunie et al. (2005)
Details: ref Ayehunie et al. (2005); cited from earlier work

Going from `CCCC(=O)Nc1ccc(OCC(O)CNC(C)C)c(C(C)=O)c1` (stereo not shown) [Acebutolol, acebutolol] to `CC(C)NCC(O)COc1cccc2ccccc12` (stereo not shown) [Propranolol, propranolol], the BCS class falls from 3 to 1.

`CC(C)NCC(O)COc1ccc(CC(N)=O)cc1` (stereo not shown) [Atenolol, atenolol] and `CCOC(=O)[C@H](CCc1ccccc1)N[C@@H](C)C(=O)N1CCC[C@H]1C(=O)O` [Enalapril, enalapril] are the same in BCS class: 3 for the first, 3 for the second.
